Taken from: PubChem BioAssay AID493246 (Drosophila RNAi Screening Center, 2011)

Screen: 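Genes fly cells need to grow and stay alive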 (primary screen)
System: Drosophila Kc and S2R+ cells
Reagent: long dsRNA against Drosophila genes
Read-out: 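Cell number per well after knock-down, printed as raw plate values; calls were based on per-plate z-scores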
Reading the numbers: Kc cell number and S2R+ cell number: higher = more cells remaining
Active means: 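Counted as a hit if cell number falls by a z-score of at least 3 within its plate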
The screen tested about 21,000 reagents; this is an unselected part of those with a known target gene and a result. Of all reagents, 429 (2%) were called active. 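Values are raw and not normalised between plates; calls rest on per-plate z-scores that were not deposited.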 Entries without a mark were called inactive. Not stated in the record: the amount of reagent, the time to read-out.

Myo28B1 (GeneID 53515) [DRSC03375] scored Kc cell number, rep 1 = 1.67e6; Kc cell number, rep 2 = 1.70e6; S2R+ cell number, rep 1 = 1.25e6; S2R+ cell number, rep 2 = 1.44e6. Against Tsp42Ec (GeneID 35612) [DRSC06192], the entry reads Kc cell number, rep 1 = 1.59e6; Kc cell number, rep 2 = 1.70e6; S2R+ cell number, rep 1 = 1.39e6; S2R+ cell number, rep 2 = 1.52e6. ATPsyngamma (GeneID 43507) [DRSC14094] gave Kc cell number, rep 1 = 1.12e6 (active); Kc cell number, rep 2 = 1.18e6; S2R+ cell number, rep 1 = 6.58e5; S2R+ cell number, rep 2 = 7.60e5. Against RhoGEF64C (GeneID 38578) [DRSC08318], the entry reads Kc cell number, rep 1 = 1.38e6; Kc cell number, rep 2 = 1.49e6; S2R+ cell number, rep 1 = 1.37e6; S2R+ cell number, rep 2 = 1.29e6. RhoGEF64C (GeneID 38578) [DRSC08319] showed Kc cell number, rep 1 = 1.57e6; Kc cell number, rep 2 = 1.48e6; S2R+ cell number, rep 1 = 1.03e6; S2R+ cell number, rep 2 = 1.11e6. For Ald2 (GeneID 43189) [DRSC15799] the deposit lists Kc cell number, rep 1 = 1.67e6; Kc cell number, rep 2 = 1.88e6; S2R+ cell number, rep 1 = 1.01e6; S2R+ cell number, rep 2 = 1.11e6.

Depletion of InR (GeneID 42549) [DRSC16717] came out at: Kc cell number, rep 1 = 1.54e6; Kc cell number, rep 2 = 1.49e6; S2R+ cell number, rep 1 = 1.12e6; S2R+ cell number, rep 2 = 1.17e6. CG1774 (GeneID 43722) [DRSC15258] showed Kc cell number, rep 1 = 4.93e5; S2R+ cell number, rep 1 = 7.56e5. Silencing of CG14837 (GeneID 38849) [DRSC10207] resulted in: Kc cell number, rep 1 = 1.59e6; Kc cell number, rep 2 = 1.52e6; S2R+ cell number, rep 1 = 1.23e6; S2R+ cell number, rep 2 = 1.24e6. Silencing of Itpr (GeneID 40664) [DRSC12354] came out at: Kc cell number, rep 1 = 1.53e6; Kc cell number, rep 2 = 1.63e6; S2R+ cell number, rep 1 = 1.32e6; S2R+ cell number, rep 2 = 1.50e6. Depletion of CG32276 (GeneID 251645) [DRSC08027] gave: Kc cell number, rep 1 = 1.49e6; Kc cell number, rep 2 = 1.33e6; S2R+ cell number, rep 1 = 1.01e6; S2R+ cell number, rep 2 = 1.19e6. Depletion of HnRNP-K (GeneID 43862) [DRSC07585] came out at: Kc cell number, rep 1 = 1.59e6; Kc cell number, rep 2 = 1.60e6; S2R+ cell number, rep 1 = 1.12e6; S2R+ cell number, rep 2 = 1.15e6.

With knock-down of AdamTS-B (GeneID 31490) [DRSC18346], the record shows Kc cell number, rep 1 = 1.68e6; Kc cell number, rep 2 = 1.63e6; S2R+ cell number, rep 1 = 1.08e6; S2R+ cell number, rep 2 = 1.15e6. Depletion of CG17999 (GeneID 37357) [DRSC04300] resulted in: Kc cell number, rep 1 = 1.34e6; Kc cell number, rep 2 = 1.43e6; S2R+ cell number, rep 1 = 1.15e6; S2R+ cell number, rep 2 = 1.17e6.

Targets above whose target name begins with I or i (2):
InR (GeneID 42549) [DRSC16717] | Kc cell number, rep 1: 1.54e6; Kc cell number, rep 2: 1.49e6; S2R+ cell number, rep 1: 1.12e6; S2R+ cell number, rep 2: 1.17e6
Itpr (GeneID 40664) [DRSC12354] | Kc cell number, rep 1: 1.53e6; Kc cell number, rep 2: 1.63e6; S2R+ cell number, rep 1: 1.32e6; S2R+ cell number, rep 2: 1.50e6
